In US10705101B2, “Determination of the unbound free fatty acid profiles in biological and industrial specimens” (priority 2013, dated 2020):
Positions count from the first letter of the chain named. Names and notes keep the numbering of the source.

B1: ADIFAB2: acrylodan-labeled (lysine 27) mutant FABP probe: L72A (protein, UniProt P02693 2-132, looked up, variant L72A)
Fatty acid-binding protein, …: AFDGTWKVDRNENYEKFMEKMGINVVKRKLGAHDNLKLTITQEGNKFTVKESSNFRNIDVVFELGVDFAYSAADGTELTGTWTMEGNKLVGKFKRVDNGKELIAVREISGNELIQTYTYEGVEAKRIFKKE
modifications: acrylodan label on K27
notes: acrylodan-labeled (lysine 27) mutant FABP probe: L72A
B2: L1P8 H2: acrylodan-labeled mutant FABP probe: Y14M, L38M, L72W (protein, UniProt P02693 2-132, looked up, variant Y14M L38M L72W)
Fatty acid-binding protein, …: B1 Fatty acid-binding protein, … with Y14M, L38M, A72W
modifications: acrylodan label
notes: acrylodan-labeled mutant FABP probe: Y14M, L38M, L72W
B3: L2P22 G6: acrylodan-labeled mutant FABP probe: M18I, G31Y, A73G (protein, UniProt P02693 2-132, looked up, variant M18I G31Y A73G)
Fatty acid-binding protein, …: B1 Fatty acid-binding protein, … with M18I, G31Y, A72L, A73G
modifications: acrylodan label
notes: acrylodan-labeled mutant FABP probe: M18I, G31Y, A73G
B4: L10P7 A4 L30C: acrylodan-labeled mutant FABP probe: Y14L, M18L, K27A, L30C, G31Y, A73L, Y117A (protein, UniProt P02693 2-132, looked up, variant Y14L M18L K27A L30C G31Y A73L Y117A)
Fatty acid-binding protein, …: B1 Fatty acid-binding protein, … with Y14L, M18L, K27A, L30C, G31Y, A72L, A73L, Y117A
modifications: acrylodan label
notes: acrylodan-labeled mutant FABP probe: Y14L, M18L, K27A, L30C, G31Y, A73L, Y117A
B5: L11P7 B3 V26C: acrylodan-labeled mutant FABP probe: M21F, V26C, L72A, L78V, L102V (protein, UniProt P02693 2-132, looked up, variant M21F V26C L72A L78V L102V)
Fatty acid-binding protein, …: B1 Fatty acid-binding protein, … with M21F, V26C, L78V, L102V
modifications: acrylodan label
notes: acrylodan-labeled mutant FABP probe: M21F, V26C, L72A, L78V, L102V

Test: Probe fluorescence ratio at zero FFAu (Ro)
Details: R (550 nm/457 nm) for zero FFAu

Row | Molecule | Ro
1 | B1 | 0.087
2 | B2 | 0.620
3 | B3 | 0.200
4 | B4 | 0.260
5 | B5 | 0.191

Test: Probe calibration by titration with FFA / FFA-BSA complexes: POA
Assay type: binding
Details: R value (550 nm/457 nm) at saturation with POA
Experimental: (§1) Calibration: Each probe is calibrated to the extent that the constants in Equation 2 are well determined for all FFAu to be included in profile calculations. Equation 2, which is the form of equation 1 for a single FFAu, relates the FFAu concentration to the equilibrium dissociation constant (Kd), fluorometric constants (Q and Rm) and the measured R values.
(§2) The calibration parameters are determined essentially as described in U.S. Pat. No. 7,601,510 which is incorporated herein by reference and (Huber et al Biochemistry (2006) 45:14263-14274) where the calibrated ADIFAB2 probe was used to generate FFA-BSA complexes with accurate and well buffered FFAu concentrations. To calibrate probes with substantially higher affinities than used in U.S. Pat. No. 7,601,510 and (Huber et al Biochemistry (2006) 45:14263-14274) a boot strap method is used in which a probe having higher affinities is calibrated with ADTFAB2. Such a probe is then used to generate FFA-BSA complexes with FFAu concentrations from 0.1 to 10 nM and these complexes are then used to calibrate other high affinity probes.
(§3) Probe calibration involves titrating the probes with either (i) un-buffered FFA or (ii) BSA-buffered FFA stocks. The un-buffered titrations involve measuring the R-value of a 1 μM probe solution as it is slowly titrated to saturation with small aliquots of a 100 to 250 μM FFA stock (Richieri G V et al. (1992) J Biol Chem 267: 23495-23501, Richieri G V et al. (1999) Mol Cell Biochem 192: 87-94). In this case, the total FFA concentration for each point in the titration is known and a nonlinear fit to the titration data yields the full set of fluorometric constants. In an un-buffered FFA titration, probe concentration is a key variable because the probe binds FFA, directly affecting the FFAu value.
(§4) Alternatively, in a BSA-buffered FFA calibration, the probe solution is titrated with a series of FFA-BSA complexes (600 μM BSA with [FFAu] ranging from 0.1 nM to 4 μM). The titration samples are FFA-BSA complex diluted 50-fold in Measuring Buffer. Probe is added to a concentration of 0.5 μM and the R-value is measured. Because BSA buffers FFAu, its concentration remains constant (i.e. known), even after the addition of probe. […] At least two calibrations with each of the up to 15 different FFA are performed for each probe.
(§5) All of the probes reveal substantial differences for different FFAu and in many cases these differences are related to the aqueous solubility of the FFA. For example, of the FFA in Table 3, SA is the least soluble and MA the most soluble. As discussed in (Richieri G V et al (2000) Biochemistry 39: 7197-7204) the tendency of natural proteins and FABPs, in particular, is for binding constants to be largest (smallest Kd) for the least soluble FFA and conversely for the most soluble FA. In two cases, ADIFAB2 and L11, Kd for SA is substantially the smallest and MA the largest and that pattern is more or less maintained for most of the other probes in Table3 with the exception of L83. In that case MA has the largest affinity while SA's more than 10 fold smaller. To some extent the other calibrations constants follow that behavior; Q is largest for the smallest Kd and Rmax is often largest, so that the probe response tends to be larger for FFA with the larger affinities. The ability to generate mutations that overcome the “natural thermodynamics” allows for probes that have a wide range of specificities and sensitivities than enable the determination of FFAu profiles.

Row | Molecule | Rm POA
6 | B1 | 0.79
7 | B2 | 0.26
8 | B3 | 1.15
9 | B4 | 0.62
10 | B5 | 4.5

Same assay, conditions: ratio of intensity at 457 nm with no FFAu bound to that at saturation, POA

Row | Molecule | Q POA
11 | B1 | 4.5
12 | B2 | 0.47
13 | B3 | 2.7
14 | B4 | 2.9
15 | B5 | 17.5

Test: Probe calibration by titration with FFA / FFA-BSA complexes: MA
Assay type: binding
Details: R value (550 nm/457 nm) at saturation with MA
Experimental: as §1, §2, §3, §4, §5

Row | Molecule | Rm MA
16 | B1 | 0.63
17 | B2 | 0.60
18 | B3 | 1.3
19 | B4 | 0.2
20 | B5 | 2.6

Same assay, conditions: ratio of intensity at 457 nm with no FFAu bound to that at saturation, MA

Row | Molecule | Q MA
21 | B1 | 3.7
22 | B2 | 0.76
23 | B3 | 3.3
24 | B4 | 1.0
25 | B5 | 10.5

Test: Probe calibration by titration with FFA / FFA-BSA complexes: LNA
Assay type: binding
Details: R value (550 nm/457 nm) at saturation with LNA
Experimental: as §1, §2, §3, §4, §5

Row | Molecule | Rm LNA
26 | B1 | 0.80
27 | B2 | 0.06
28 | B3 | 1.21
29 | B4 | 1.4
30 | B5 | 5.9

Same assay, conditions: ratio of intensity at 457 nm with no FFAu bound to that at saturation, LNA

Row | Molecule | Q LNA
31 | B1 | 5.0
32 | B2 | 0.27
33 | B3 | 3.8
34 | B4 | 6.7
35 | B5 | 21.8

Test: Probe calibration by titration with FFA / FFA-BSA complexes: OA
Assay type: binding
Details: R value (550 nm/457 nm) at saturation with OA
Experimental: as §1, §2, §3, §4, §5

Row | Molecule | Rm OA
36 | B1 | 0.76
37 | B2 | 0.07
38 | B3 | 0.97
39 | B4 | 1.2
40 | B5 | 7.2

Same assay, conditions: ratio of intensity at 457 nm with no FFAu bound to that at saturation, OA

Row | Molecule | Q OA
41 | B1 | 5.0
42 | B2 | 0.20
43 | B3 | 2.4
44 | B4 | 4.9
45 | B5 | 25.7

Test: Probe calibration by titration with FFA / FFA-BSA complexes: LA
Assay type: binding
Details: R value (550 nm/457 nm) at saturation with LA
Experimental: as §1, §2, §3, §4, §5

Row | Molecule | Rm LA
46 | B1 | 0.73
47 | B2 | 0.08
48 | B3 | 0.99
49 | B4 | 1.8
50 | B5 | 6.2

Same assay, conditions: ratio of intensity at 457 nm with no FFAu bound to that at saturation, LA

Row | Molecule | Q LA
51 | B1 | 4.0
52 | B2 | 0.25
53 | B3 | 2.6
54 | B4 | 8.2
55 | B5 | 23.1

Test: Probe calibration by titration with FFA / FFA-BSA complexes: PA
Assay type: binding
Details: R value (550 nm/457 nm) at saturation with PA
Experimental: as §1, §2, §3, §4, §5

Row | Molecule | Rm PA
56 | B1 | 1.16
57 | B2 | 0.17
58 | B3 | 1.21
59 | B4 | 0.29
60 | B5 | 5.6

Same assay, conditions: ratio of intensity at 457 nm with no FFAu bound to that at saturation, PA

Row | Molecule | Q PA
61 | B1 | 6.6
62 | B2 | 0.44
63 | B3 | 4.0
64 | B4 | 1.5
65 | B5 | 21.4

Test: Probe calibration by titration with FFA / FFA-BSA complexes: AA
Assay type: binding
Details: R value (550 nm/457 nm) at saturation with AA
Experimental: as §1, §2, §3, §4, §5

Row | Molecule | Rm AA
66 | B1 | 0.91
67 | B2 | 0.08
68 | B3 | 0.83
69 | B4 | 2.5
70 | B5 | 8.3

Same assay, conditions: ratio of intensity at 457 nm with no FFAu bound to that at saturation, AA

Row | Molecule | Q AA
71 | B1 | 5.0
72 | B2 | 0.24
73 | B3 | 2.8
74 | B4 | 11.2
75 | B5 | 27.0

Test: Probe calibration by titration with FFA / FFA-BSA complexes: DHA
Assay type: binding
Details: R value (550 nm/457 nm) at saturation with DHA
Experimental: as §1, §2, §3, §4, §5

Row | Molecule | Rm DHA
76 | B1 | 0.64
77 | B2 | 0.18
78 | B3 | 1.13
79 | B4 | 3.2
80 | B5 | 8.7

Same assay, conditions: ratio of intensity at 457 nm with no FFAu bound to that at saturation, DHA

Row | Molecule | Q DHA
81 | B1 | 3.3
82 | B2 | 0.28
83 | B3 | 3.4
84 | B4 | 15.8
85 | B5 | 27.4
